Experimental data reported in the supplement of paper PMC12823440, “Inhibitors supercharge kinase turnover through native proteolytic circuits” (Nature, 2025).
Structures can show the parent of a compound that is named as a salt. The list shows a part of the results. Hit calls seldom repeat between salt and free forms of one compound.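 Kinases, fused to nanoluciferase, were expressed in K562 cells; luminescence was measured every 4 h from 2 to 18 h as percent of control (DMSO = 100%, positive control = 0%). A time point is decreased if signal falls significantly (2 sigma). Hits were called by the authors by a rule that is not shown; the count of time points alone does not decide it.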

Protein sequences, listed by entry. Tags and fused reporters are not part of them. Lines headed by an entry give the natural chain unless they say otherwise; changes in a name come on top.
UniProt Q16288, whole entry, looked up: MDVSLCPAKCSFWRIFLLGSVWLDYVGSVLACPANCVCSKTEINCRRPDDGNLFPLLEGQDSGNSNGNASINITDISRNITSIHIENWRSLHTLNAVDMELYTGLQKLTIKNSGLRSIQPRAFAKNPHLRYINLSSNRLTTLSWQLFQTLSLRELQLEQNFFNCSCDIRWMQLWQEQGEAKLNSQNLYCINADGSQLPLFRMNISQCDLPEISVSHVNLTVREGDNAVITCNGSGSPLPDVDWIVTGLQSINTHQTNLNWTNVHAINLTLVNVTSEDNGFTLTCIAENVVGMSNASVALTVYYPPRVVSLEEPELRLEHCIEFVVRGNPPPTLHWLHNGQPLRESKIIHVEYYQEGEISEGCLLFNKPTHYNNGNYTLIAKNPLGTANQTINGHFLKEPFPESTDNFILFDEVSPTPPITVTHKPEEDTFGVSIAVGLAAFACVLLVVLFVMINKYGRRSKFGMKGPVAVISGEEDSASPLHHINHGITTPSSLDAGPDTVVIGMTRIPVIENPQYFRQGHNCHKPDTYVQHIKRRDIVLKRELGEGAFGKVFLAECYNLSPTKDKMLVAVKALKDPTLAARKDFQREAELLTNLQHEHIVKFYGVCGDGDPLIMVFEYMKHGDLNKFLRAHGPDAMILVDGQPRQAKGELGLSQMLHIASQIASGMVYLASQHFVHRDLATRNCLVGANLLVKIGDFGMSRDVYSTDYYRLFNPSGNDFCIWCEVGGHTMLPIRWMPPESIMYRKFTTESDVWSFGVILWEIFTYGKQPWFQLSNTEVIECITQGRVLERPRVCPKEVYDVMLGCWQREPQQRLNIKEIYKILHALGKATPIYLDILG
UniProt O96013: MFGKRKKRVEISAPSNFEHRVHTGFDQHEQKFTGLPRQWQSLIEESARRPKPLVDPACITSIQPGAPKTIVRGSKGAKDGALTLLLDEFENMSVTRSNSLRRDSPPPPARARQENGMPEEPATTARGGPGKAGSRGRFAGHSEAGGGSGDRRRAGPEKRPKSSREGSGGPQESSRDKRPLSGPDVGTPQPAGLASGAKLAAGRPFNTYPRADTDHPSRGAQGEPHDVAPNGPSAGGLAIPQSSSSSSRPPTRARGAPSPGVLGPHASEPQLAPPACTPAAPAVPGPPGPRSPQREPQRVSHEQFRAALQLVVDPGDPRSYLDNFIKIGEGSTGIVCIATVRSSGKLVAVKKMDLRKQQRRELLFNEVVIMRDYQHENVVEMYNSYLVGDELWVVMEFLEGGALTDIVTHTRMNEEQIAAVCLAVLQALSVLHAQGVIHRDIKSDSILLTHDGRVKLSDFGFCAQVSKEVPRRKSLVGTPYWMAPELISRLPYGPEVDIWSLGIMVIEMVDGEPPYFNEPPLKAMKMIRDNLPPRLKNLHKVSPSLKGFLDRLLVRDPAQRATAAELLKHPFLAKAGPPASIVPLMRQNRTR
UniProt Q96KB5: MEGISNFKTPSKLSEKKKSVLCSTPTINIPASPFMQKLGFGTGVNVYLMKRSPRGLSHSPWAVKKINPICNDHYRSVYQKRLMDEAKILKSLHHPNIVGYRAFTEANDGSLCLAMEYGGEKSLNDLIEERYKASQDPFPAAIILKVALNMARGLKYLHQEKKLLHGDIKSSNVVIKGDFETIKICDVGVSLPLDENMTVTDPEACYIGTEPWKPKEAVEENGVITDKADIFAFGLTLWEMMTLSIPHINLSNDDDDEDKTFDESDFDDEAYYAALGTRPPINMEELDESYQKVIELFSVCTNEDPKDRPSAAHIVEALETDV
UniProt P09619, whole entry: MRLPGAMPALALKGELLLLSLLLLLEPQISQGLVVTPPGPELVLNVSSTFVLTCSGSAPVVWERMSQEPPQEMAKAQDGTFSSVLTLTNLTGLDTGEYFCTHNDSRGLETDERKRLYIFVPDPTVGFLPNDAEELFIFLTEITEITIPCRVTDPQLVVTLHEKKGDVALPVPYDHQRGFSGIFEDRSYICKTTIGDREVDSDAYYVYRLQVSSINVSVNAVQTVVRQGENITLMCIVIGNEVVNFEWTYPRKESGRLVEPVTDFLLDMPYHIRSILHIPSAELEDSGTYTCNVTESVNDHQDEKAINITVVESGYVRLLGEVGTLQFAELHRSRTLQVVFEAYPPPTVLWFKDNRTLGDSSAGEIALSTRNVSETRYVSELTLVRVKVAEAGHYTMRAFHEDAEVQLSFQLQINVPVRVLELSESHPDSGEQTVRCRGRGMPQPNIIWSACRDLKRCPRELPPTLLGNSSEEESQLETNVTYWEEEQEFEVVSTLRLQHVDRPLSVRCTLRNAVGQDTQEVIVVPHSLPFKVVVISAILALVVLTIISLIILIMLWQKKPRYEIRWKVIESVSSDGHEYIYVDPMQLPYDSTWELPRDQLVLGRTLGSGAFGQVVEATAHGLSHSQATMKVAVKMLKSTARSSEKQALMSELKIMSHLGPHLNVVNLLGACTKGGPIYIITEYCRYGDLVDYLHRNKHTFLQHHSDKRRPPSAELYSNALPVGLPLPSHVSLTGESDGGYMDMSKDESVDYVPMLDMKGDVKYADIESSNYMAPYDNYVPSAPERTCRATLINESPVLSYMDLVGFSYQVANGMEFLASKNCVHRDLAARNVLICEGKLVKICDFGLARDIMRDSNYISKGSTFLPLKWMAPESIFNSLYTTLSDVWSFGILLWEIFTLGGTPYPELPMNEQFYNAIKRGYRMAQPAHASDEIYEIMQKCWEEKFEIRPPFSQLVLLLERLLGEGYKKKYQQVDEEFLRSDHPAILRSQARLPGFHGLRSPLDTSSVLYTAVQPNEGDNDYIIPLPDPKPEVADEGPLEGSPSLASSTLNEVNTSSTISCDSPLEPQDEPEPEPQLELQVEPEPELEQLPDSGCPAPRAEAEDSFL
UniProt P42356, whole entry, looked up: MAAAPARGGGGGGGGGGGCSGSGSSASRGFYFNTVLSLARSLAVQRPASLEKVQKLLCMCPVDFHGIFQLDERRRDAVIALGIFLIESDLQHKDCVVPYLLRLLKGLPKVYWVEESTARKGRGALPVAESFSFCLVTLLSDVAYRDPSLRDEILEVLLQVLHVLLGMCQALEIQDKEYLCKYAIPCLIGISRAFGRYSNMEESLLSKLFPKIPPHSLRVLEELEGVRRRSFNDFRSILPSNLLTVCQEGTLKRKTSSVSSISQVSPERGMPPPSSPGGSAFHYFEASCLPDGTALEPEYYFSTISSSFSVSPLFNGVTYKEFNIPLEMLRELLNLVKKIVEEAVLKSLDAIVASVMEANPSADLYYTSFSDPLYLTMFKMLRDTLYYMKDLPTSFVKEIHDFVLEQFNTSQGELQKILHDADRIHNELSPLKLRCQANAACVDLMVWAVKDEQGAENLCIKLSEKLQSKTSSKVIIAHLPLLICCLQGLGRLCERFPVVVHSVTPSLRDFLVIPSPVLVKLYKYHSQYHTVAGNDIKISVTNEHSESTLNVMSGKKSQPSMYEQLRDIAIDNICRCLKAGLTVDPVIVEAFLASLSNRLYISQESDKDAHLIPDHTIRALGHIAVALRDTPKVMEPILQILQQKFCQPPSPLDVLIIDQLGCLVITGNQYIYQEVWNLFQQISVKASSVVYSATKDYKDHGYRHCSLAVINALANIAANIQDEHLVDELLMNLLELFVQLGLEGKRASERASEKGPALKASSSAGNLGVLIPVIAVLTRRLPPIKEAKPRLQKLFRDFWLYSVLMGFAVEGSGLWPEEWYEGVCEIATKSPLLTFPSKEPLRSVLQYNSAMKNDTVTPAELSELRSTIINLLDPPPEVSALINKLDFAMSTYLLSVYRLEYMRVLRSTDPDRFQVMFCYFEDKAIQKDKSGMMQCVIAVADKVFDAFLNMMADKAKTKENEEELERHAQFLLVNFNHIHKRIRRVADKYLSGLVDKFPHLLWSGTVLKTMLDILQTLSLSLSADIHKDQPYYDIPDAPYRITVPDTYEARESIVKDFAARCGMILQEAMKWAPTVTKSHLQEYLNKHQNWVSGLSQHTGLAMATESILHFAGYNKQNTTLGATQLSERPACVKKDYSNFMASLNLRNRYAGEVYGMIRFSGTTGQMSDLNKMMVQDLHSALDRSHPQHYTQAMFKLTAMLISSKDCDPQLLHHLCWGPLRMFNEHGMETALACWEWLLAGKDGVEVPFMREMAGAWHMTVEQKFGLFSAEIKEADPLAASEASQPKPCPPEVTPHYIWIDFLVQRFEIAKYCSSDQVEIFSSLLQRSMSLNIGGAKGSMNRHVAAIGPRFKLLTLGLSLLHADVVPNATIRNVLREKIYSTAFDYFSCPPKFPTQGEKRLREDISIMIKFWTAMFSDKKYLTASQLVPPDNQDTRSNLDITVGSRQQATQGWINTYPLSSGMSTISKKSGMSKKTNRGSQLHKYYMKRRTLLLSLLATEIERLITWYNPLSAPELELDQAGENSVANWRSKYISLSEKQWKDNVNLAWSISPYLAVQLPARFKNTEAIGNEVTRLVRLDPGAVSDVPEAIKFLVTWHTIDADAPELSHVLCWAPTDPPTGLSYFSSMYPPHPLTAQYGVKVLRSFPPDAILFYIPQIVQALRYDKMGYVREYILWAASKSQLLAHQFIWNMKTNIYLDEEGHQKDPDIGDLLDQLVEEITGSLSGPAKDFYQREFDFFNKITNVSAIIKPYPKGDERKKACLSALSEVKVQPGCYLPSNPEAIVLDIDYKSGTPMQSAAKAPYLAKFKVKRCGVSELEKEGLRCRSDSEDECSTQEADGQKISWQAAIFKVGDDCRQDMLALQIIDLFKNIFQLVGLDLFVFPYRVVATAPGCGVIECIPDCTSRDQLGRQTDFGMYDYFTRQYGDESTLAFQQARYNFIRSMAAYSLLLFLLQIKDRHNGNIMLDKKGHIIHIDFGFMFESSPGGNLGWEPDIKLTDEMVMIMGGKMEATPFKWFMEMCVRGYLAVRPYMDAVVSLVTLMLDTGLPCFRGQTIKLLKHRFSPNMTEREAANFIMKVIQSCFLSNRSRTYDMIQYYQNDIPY
UniProt Q9UBF8: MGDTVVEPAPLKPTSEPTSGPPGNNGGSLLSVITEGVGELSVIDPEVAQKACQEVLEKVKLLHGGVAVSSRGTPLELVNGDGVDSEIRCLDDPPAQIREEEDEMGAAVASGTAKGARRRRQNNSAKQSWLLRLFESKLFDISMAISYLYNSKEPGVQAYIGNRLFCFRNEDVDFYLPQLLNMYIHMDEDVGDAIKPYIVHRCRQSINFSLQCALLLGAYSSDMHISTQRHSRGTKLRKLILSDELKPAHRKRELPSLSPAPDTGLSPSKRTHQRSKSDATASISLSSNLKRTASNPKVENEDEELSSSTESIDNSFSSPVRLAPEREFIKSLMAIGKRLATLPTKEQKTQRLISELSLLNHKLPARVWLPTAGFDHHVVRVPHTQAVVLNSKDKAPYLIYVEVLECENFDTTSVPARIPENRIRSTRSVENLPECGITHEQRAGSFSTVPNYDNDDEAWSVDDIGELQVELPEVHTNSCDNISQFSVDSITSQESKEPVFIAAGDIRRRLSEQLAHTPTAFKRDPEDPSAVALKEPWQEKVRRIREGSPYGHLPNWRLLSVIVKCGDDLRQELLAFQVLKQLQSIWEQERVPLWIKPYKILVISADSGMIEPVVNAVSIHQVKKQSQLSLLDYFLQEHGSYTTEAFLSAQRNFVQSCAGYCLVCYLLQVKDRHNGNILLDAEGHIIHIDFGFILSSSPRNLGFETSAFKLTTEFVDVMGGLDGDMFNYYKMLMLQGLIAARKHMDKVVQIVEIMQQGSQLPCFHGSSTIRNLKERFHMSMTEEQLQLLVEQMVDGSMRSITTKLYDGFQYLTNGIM
UniProt Q13131: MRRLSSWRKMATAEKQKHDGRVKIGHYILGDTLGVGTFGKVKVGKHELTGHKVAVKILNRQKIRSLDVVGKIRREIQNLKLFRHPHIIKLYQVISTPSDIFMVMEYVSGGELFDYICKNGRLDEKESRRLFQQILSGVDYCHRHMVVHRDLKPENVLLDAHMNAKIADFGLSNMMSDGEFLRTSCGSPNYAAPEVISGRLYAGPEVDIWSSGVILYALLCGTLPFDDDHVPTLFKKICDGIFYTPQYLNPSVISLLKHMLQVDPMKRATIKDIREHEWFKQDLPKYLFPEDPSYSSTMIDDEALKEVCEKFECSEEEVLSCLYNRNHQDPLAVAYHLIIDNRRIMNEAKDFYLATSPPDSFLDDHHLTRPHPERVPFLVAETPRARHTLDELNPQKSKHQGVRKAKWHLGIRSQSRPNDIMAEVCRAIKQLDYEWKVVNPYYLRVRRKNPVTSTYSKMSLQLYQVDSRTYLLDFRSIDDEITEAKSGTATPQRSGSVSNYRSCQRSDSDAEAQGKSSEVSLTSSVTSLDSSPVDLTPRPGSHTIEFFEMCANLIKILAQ

Assays:
Assay in all cases: number of time points (of 5) at which kinase-Nluc abundance scored as decreased, DMSO-normalised (count); higher = more persistent destabilization
Details in all cases: K562; 2-18 h
NTRK3 = NTRK3 (UniProt Q16288)
PAK4 = PAK4 (UniProt O96013)
PBK = PBK (UniProt Q96KB5)
PDGFRB = PDGFRB (UniProt P09619)
PDK1 = PDK1 (UniProt Q15118)
PDPK1 = PDPK1 (UniProt O15530)
PIK4CA = PIK4CA (UniProt P42356)
PIK4CB = PIK4CB (UniProt Q9UBF8)
PLK1 = PLK1 (UniProt P53350)
PRKAA1 = PRKAA1 (UniProt Q13131)

SMILES | number of time points (NTRK3) | number of time points (PAK4) | number of time points (PBK) | number of time points (PDGFRB) | number of time points (PDK1) | number of time points (PDPK1) | number of time points (PIK4CA) | number of time points (PIK4CB) | number of time points (PLK1) | number of time points (PRKAA1)
CC(ONC(=O)c1cc(C(F)(F)F)cc(C(F)(F)F)c1)C(=O)Nc1ccc(Cl)cc1 (stereo not given) (2.5 µM) | 0 | 0 | 0 | 0 | 0 | 0 | 0 | 0 | 0 | 0
CC(C1CC1)n1cnc2c(NCc3cccc(C(F)(F)F)c3)nc(NCCN(C)C)nc21 (stereo not given) (10 µM) | 0 | 0 | 0 | 0 | 0 | 0 | 0 | 0 | 0 | 0
N=C(NC(=N)N1CCCC1)Nc1ccc(OC(F)(F)F)cc1 (10 µM) | 0 | 0 | 0 | 0 | 0 | 0 | 0 | 0 | 0 | 0
N#C/C(=C/c1ccc(O)c(O)c1)C(=O)N1CCc2ccccc21 [Tyrphostin AG 528] (10 µM) | 0 | 0 | 0 | 0 | 0 | 0 | 0 | 0 | 0 | 0
CC1=C(C#N)C(c2ccc3[nH]nc(C)c3c2)C(C#N)=C(C)N1 (10 µM) | 0 | 0 | 0 | 0 | 0 | 0 | 0 | 0 | 0 | 0
CCn1c(N)c(C(=O)NC)c(=O)c2ccc(C#CC(C)(O)COC)nc21 (stereo not given) (10 µM) | 0 | 0 | 0 | 0 | 0 | 0 | 0 | 0 | 0 | 0
CN1CCN(Cc2ccc(-c3cn(C4CCC(O)CC4)c4nc(NCCC5CC5)ncc34)cc2)CC1 (stereo not given) (2.5 µM) | 3 | 0 | 0 | 0 | 0 | 0 | 0 | 0 | 0 | 1
COc1c(O)cc(O)c2c(=O)cc(-c3ccccc3)oc12 [Wogonin] (10 µM) | 0 | 0 | 0 | 0 | 0 | 0 | 0 | 0 | 0 | 0
COc1ccc(Cl)cc1N(CC(=O)Nc1ccc2c(c1)OCO2)S(=O)(=O)c1ccccc1 (2.5 µM) | 0 | 0 | 0 | 0 | 0 | 0 | 0 | 0 | 0 | 0
Nc1[nH]nc2nnc(-c3c(-c4ccccc4)nn4ccccc34)cc12 (10 µM) | 0 | 0 | 0 | 0 | 0 | 0 | 0 | 0 | 0 | 0
CN(C)CCn1cc2cc(NC(=O)c3cccc(C(F)(F)F)n3)c(C(C)(C)O)cc2n1 (10 µM) | 0 | 0 | 0 | 0 | 0 | 0 | 0 | 0 | 0 | 0
Cc1ccc(C2CC(=O)NC(SCC(=O)Nc3nccs3)=C2C#N)cc1 (stereo not given) [Necrostatin-34] (10 µM) | 0 | 0 | 0 | 0 | 0 | 0 | 0 | 0 | 0 | 0
CCc1c(C(=O)NNC(=O)[C@H](O)c2cc(F)cc(F)c2)ccc(O)c1C (10 µM) | 0 | 0 | 0 | 0 | 0 | 0 | 0 | 0 | 0 | 0
Cn1cc(-c2nc(N[C@@H]3CCCC[C@@H]3N)c(F)c3c2C(=O)NC3)cn1 [TAK-659 (hydrochloride)] (2 µM) | 0 | 0 | 0 | 0 | 0 | 0 | 0 | 0 | 0 | 0
CN1CCN(c2ccc(-c3ccncc3-c3cc(F)c(O)c(F)c3)cc2)CC1 (10 µM) | 0 | 0 | 0 | 0 | 0 | 0 | 0 | 0 | 0 | 0
S=C(NCc1ccc2c(c1)OCO2)N1CCN(c2ncnc3c2oc2ccccc23)CC1 [Amuvatinib] (2.5 µM) | 0 | 0 | 0 | 0 | 0 | 0 | 0 | 0 | 0 | 0
O=C1OC(COc2ccccc2[N+](=O)[O-])CC1Cc1ccccc1 (stereo not given) (10 µM) | 0 | 0 | 0 | 0 | 0 | 0 | 0 | 0 | 0 | 0
O=C1NC(=O)C(Cc2c[nH]c3c(Cl)cccc23)N1 (stereo not given) [Necroptosis-IN-1] (10 µM) | 0 | 0 | 0 | 0 | 0 | 0 | 0 | 0 | 0 | 0
C[C@@H](NC(=O)c1ncnc(N)c1Cl)c1ncc(C(=O)Nc2cc(C(F)(F)F)c(Cl)cn2)s1 (2.5 µM) | 2 | 0 | 0 | 2 | 0 | 4 | 2 | 2 | 0 | 2
CN1C(=O)N[C@@H](Cc2c[nH]c3c(Cl)cccc23)C1=O [Necrostatin 2 (S enantiomer)] (10 µM) | 0 | 0 | 0 | 0 | 0 | 0 | 0 | 0 | 0 | 0
Cc1cc2c(F)c(Oc3ncnn4cc(OC[C@@H](C)OC(=O)[C@H](C)N)c(C)c34)ccc2[nH]1 [Brivanib (alaninate)] (10 µM) | 0 | 0 | 0 | 0 | 0 | 0 | 0 | 0 | 0 | 0
CCOC(=O)c1c(C)[nH]c(C=C2C(=O)Nc3ccccc32)c1C (10 µM) | 0 | 0 | 0 | 0 | 0 | 0 | 0 | 0 | 0 | 0
COc1ccc2nc3ccc(OC)cc3c(SCCCN)c2c1 (10 µM) | 3 | 0 | 0 | 0 | 2 | 3 | 0 | 3 | 0 | 3
CC1(C)C=Cc2c(ccc(C(=O)/C=C/c3ccc(O)cc3)c2O)O1 [4-Hydroxylonchocarpin] (10 µM) | 0 | 0 | 0 | 0 | 0 | 0 | 0 | 0 | 0 | 0

Entries shown so far with an aryl methoxy group (three):
SMILES | number of time points (NTRK3) | number of time points (PAK4) | number of time points (PBK) | number of time points (PDGFRB) | number of time points (PDK1) | number of time points (PDPK1) | number of time points (PIK4CA) | number of time points (PIK4CB) | number of time points (PLK1) | number of time points (PRKAA1)
COc1c(O)cc(O)c2c(=O)cc(-c3ccccc3)oc12 [Wogonin] (10 µM) | 0 | 0 | 0 | 0 | 0 | 0 | 0 | 0 | 0 | 0
COc1ccc(Cl)cc1N(CC(=O)Nc1ccc2c(c1)OCO2)S(=O)(=O)c1ccccc1 (2.5 µM) | 0 | 0 | 0 | 0 | 0 | 0 | 0 | 0 | 0 | 0
COc1ccc2nc3ccc(OC)cc3c(SCCCN)c2c1 (10 µM) | 3 | 0 | 0 | 0 | 2 | 3 | 0 | 3 | 0 | 3
